Measurements taken from publication PMC7499972.
Results are given in words; binding and its absence hold for the method and conditions named. Binding seen in cells or lysates may run through a third protein. Here binding means that the protein was enriched with, or labelled near, the bait; the list need not be complete.

Sequences of proteins named here, by UniProt entry; tags and fusion partners are left off.
UniProt P19793: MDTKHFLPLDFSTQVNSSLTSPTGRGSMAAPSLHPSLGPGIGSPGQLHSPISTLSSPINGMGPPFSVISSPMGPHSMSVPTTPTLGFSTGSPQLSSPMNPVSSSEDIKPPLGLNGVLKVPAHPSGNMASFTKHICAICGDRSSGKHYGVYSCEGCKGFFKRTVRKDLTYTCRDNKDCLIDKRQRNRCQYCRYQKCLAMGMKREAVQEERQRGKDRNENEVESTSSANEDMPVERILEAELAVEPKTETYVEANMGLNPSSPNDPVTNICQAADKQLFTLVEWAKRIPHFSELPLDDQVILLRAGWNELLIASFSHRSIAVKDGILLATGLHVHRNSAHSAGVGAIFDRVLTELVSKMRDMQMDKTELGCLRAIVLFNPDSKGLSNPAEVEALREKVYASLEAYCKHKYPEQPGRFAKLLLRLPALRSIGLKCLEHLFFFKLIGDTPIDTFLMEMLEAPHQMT
UniProt P28702: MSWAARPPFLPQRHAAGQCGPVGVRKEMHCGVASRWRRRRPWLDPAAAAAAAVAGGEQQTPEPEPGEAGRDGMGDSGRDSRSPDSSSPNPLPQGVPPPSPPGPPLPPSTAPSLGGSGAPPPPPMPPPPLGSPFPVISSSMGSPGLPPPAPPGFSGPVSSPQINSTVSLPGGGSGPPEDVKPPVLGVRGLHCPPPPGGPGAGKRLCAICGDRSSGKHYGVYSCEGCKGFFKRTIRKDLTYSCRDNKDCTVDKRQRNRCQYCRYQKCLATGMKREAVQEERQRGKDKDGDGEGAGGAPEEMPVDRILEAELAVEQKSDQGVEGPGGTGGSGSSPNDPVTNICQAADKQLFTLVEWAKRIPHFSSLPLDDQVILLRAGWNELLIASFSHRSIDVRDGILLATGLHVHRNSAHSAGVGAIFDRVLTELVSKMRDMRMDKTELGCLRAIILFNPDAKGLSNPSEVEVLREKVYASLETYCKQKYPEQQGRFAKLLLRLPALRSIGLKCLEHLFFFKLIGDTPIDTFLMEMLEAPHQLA
UniProt Q92731: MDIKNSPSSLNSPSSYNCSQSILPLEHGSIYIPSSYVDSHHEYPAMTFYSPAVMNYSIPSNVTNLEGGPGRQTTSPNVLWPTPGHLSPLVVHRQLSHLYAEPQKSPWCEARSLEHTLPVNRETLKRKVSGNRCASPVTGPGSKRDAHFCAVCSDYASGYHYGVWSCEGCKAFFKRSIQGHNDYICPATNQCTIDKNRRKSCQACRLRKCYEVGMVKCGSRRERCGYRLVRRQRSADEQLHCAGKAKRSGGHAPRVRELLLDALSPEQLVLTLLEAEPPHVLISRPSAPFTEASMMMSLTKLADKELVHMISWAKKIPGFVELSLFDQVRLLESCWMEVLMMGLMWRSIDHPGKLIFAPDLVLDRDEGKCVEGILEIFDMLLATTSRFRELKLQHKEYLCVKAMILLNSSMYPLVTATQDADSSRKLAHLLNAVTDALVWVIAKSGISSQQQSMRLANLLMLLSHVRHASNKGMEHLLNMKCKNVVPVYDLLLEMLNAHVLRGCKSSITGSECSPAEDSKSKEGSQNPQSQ

T1: CLPTM1L, bait of the mass spectrographic analysis in A549 cells (human) (UniProt Q96KA5)
T1 sequence: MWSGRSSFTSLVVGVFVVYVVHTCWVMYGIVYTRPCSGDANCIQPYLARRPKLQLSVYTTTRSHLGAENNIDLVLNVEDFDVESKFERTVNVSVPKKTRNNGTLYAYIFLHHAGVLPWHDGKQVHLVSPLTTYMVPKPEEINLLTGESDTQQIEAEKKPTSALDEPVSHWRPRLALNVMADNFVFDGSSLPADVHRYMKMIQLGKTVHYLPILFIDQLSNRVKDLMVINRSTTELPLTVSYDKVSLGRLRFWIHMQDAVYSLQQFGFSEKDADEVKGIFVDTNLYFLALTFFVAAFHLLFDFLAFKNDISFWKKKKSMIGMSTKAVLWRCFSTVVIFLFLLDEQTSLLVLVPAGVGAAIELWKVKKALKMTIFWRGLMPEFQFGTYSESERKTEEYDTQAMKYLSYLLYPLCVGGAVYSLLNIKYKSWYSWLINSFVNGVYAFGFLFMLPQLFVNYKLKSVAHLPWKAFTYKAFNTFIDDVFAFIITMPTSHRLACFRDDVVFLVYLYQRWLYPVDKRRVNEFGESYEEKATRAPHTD


What follows are molecules tested against T1, CLPTM1L, bait of the mass spectrographic analysis in A549 cells (human) (assay: affinity purification with mass spectrometry; mass spectrographic analysis of CLPTM1L in A549 cells; how CLPTM1L was isolated is not told).

Molecule | binding
RXRα (from UniProt P19793 1-462) | binds
RXRβ (from UniProt P28702 1-533) | binds

The next lines start with the values.

binding | Molecule
binds | Estrogen receptor β (ERβ) in A549 cells (from UniProt Q92731 1-530)
binds | PPARα (protein, UniProt Q07869 1-468) MVDTESPLCPLSPLEAGDLESPLSEEFLQEMGNIQEISQSIGEDSSGSFGFTEYQYLGSCPGSDGSVITDTLSPASSPSSVTYPVVPGSVDESPSGALNIECRICGDKASGYHYGVHACEGCKGFFRRTIRLKLVYDKCDRSCKIQKKNRNKCQYCRFHKCLSVGMSHNAIRFGRMPRSEKAKLKAEILTCEHDIEDSETADLKSLAKRIYEAYLKNFNMNKVKARVILSGKASNNPPFVIHDMETLCMAEKTLVAKLVANGIQNKEAEVRIFHCCQCTSVETVTELTEFAKAIPGFANLDLNDQVTLLKYGVYEAIFAMLSSVMNKDGMLVAYGNGFITREFLKSLRKPFCDIMEPKFDFAMKFNALELDDSDISLFVAAIICCGDRPGLLNVGHIEKMQEGIVHVLRLHLQSNHPDDIFLFPKLLQKMADLRQLVTEHAQLVQIIKKTESDAALHPLLQEIYRDMY
